{
  "sequences": {"note": "The chains behind the UniProt entries cited, without tags or fusion partners. Residues count along the entry.", "UniProt P01137, 279-390": "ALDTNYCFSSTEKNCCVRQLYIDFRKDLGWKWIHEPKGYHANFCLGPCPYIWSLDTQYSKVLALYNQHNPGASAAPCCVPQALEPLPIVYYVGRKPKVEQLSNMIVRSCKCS"},
  "source": "paper PMC9481871",
  "key": {"[1]": {"target": "human TGF-β1 (active) (Homo sapiens) (UniProt P01137)", "experiment": "competition with a labelled probe", "settings": "SPR: 8 nM aptamer (4 nM in Fig 1C) inhibits 4 nM TGF-β1 binding to TGF-βRII/Fc; 2'-fluoro pyrimidines (SELEX with 2'-F-CTP and 2'-F-UTP); parent of APT-β1-OMe without 2'-OMe; recombinant protein; letters put together from the description"}, "[2]": {"target": "human TGF-β1 (active) (Homo sapiens) (UniProt P01137)", "experiment": "SPR", "settings": "2'-OMe at 1,4,8-12,16,17,23-27,30-33, 2'-F at 3,5,19,20,21, others 2'-OH, 5' 40-kDa PEG, 3' inverted dT, SPR (Biacore): 145 mM NaCl, 5.4 mM KCl, 0.8 mM MgCl2, 1.8 mM CaCl2, 20 mM Tris-HCl pH 7.6, 0.05% Tween 20, temperature not given, recombinant protein, label: 5' biotin when immobilized on SA chip"}},
  "note": "For at least one entry, the source does not settle the construct or the ends of the probe. For part of these data: At least one verdict rests on a figure or table, not on a statement of the authors.",
  "data": [
    {"sequence": "GGCAUAAGGGAGGGGAGACUUGUGGAGGGCAAG [APT-β1]", "values": [
      {"measurement": "binding result", "setting": "[1]", "result": "binds"}
    ]},
    {"sequence": "GGCAUAAGGGAGGGGAGACUUGUGGAGGGCAAG [APT-β1-OMe-P]", "values": [
      {"measurement": "Kd", "setting": "[2]; TGF-β1 immobilized on CM4 (624 RU), univalent model, distorted sensorgrams, accuracy uncertain", "result": 1.77, "unit": "nM"},
      {"measurement": "Kd", "setting": "[2]; aptamer immobilized on SA chip (67.1 RU), bivalent model KD1, accuracy uncertain per authors", "result": 1.13, "unit": "nM"}
    ]}
  ]
}
